{"sequences": {"note": "Amino acid sequences for entries named in this document (tags omitted).", "UniProt P19821, whole entry": "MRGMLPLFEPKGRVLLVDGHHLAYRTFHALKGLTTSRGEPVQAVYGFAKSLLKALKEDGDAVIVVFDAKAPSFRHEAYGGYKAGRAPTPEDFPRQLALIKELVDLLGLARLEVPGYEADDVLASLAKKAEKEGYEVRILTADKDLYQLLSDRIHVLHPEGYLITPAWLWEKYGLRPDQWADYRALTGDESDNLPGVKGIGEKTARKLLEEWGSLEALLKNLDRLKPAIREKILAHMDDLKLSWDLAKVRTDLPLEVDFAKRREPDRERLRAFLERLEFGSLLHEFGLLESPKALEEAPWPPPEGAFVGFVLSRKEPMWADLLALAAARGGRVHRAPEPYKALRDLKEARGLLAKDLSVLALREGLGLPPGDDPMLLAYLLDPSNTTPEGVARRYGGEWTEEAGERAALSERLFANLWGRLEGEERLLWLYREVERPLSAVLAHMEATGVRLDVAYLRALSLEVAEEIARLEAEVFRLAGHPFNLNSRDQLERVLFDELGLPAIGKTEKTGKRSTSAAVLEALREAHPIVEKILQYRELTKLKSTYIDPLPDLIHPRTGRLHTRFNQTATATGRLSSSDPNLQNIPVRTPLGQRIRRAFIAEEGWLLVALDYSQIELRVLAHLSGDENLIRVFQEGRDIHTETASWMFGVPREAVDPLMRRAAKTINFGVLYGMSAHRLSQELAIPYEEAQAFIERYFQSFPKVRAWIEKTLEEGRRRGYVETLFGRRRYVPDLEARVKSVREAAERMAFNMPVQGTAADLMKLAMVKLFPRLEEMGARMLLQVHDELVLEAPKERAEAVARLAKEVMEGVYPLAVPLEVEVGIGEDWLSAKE"}, "source": "patent US20200392562A1", "about": "“POLYMERASE CHAIN REACTION COMPOSITION COMPRISING AMINES” (priority 2017, published 2020)", "target": "Taq DNA polymerase (Thermus aquaticus, UniProt P19821)", "type": "biochemical", "excerpt": "A forward primer (SEQ ID No: 1) and a reverse primer (SEQ ID No: 2) were used with the PCR program described in Table 3. PCR products were detected by agarose gel electrophoresis followed by ethidium bromide staining", "note": "Like-named read-outs stand apart in the source and are kept apart here. Some of these results come from one statement about several compounds together. At least one compound was matched to its structure with a doubt left."}
{"smiles": "CCNCC.Cl", "note": "[diethylamine hydrochloride]", "values": [{"measurement": "urea concentration up to which detectable PCR product was observed", "value": "up to 92 mM"}]}
{"smiles": "CC(C)NC(C)C.Cl", "note": "[diisopropylamine hydrochloride]", "values": [{"measurement": "urea concentration up to which detectable PCR product was observed", "setting": "PCR buffers containing amine, PCR buffer 1: 37 mM", "value": "up to 92 mM"}]}
